Data: patent US4943646A, “Gallium complexes and solvent extraction of gallium” (Monsanto Company, priority 1987, dated 1990)
Where “and” joins values, the source holds several entries; their conditions need not be identical. Equal values may be shown once.

Assays:
[1] = Extraction with different modifiers, Fe (Example 16); conditions: modifier (20%) with 40% N-methyl naphthenohydroxamic acid
[2] = Extraction with different modifiers, Al (Example 16); conditions: modifier (20%) with 40% N-methyl naphthenohydroxamic acid
[3] = Extraction with different modifiers, P (Example 16); conditions: modifier (20%) with 40% N-methyl naphthenohydroxamic acid
[4] = Extraction with different modifiers, Zn (Example 16); conditions: modifier (20%) with 40% N-methyl naphthenohydroxamic acid
[5] = Extraction with 40% N-methyl naphthenohydroxamic acid and different modifiers, Ga (Example 16); conditions: modifier (20%) with 40% N-methyl naphthenohydroxamic acid; pH 0.99, 60 °C, 10 min
[6] = Gallium extraction with a bis-hydroxamic acid (Example 19)
[7] = Stripping of Fe (III) from hydroxamic acids with sulfuric acid (Table 10)
[8] = Minimum pH at which 50% of Fe (III) was extractible (Table 11)
[9] = Extraction and stripping, synthetic zinc leachate, Fe (Example 18)
[10] = Extraction and stripping, synthetic zinc leachate, Ga (Example 18)
[11] = Extraction from GaCl3 and caustic stripping of gallium (Example 20)
[12] = Same extraction/wash/strip cycle, iron (Examples 1-7)
[13] = Stirred-beaker extraction, 2% H2SO4 wash and 30% H2SO4 strip of gallium from phosphate treater dust leachate (Examples 1-7)

CCCCCCCCCc1ccc(O)cc1 [4-nonylphenol]
% Extracted Fe [1]: 50%
% Extracted Al [2]: 0%
% Extracted P [3]: 0%
% Extracted Zn [4]: 10%
% Extracted Ga [5]: 90%

CCCCOP(=O)(CCCC)OCCCC [Di-n-butyl butylphosphonate]
% Extracted Fe [1]: 0%
% Extracted Al [2]: 0%
% Extracted P [3]: 0%
% Extracted Zn [4]: 10%
% Extracted Ga [5]: 3%

C=CC(CC(C)(C)CC(C)(C)C)c1ccc2cccnc2c1O (centres unmarked) [Kelex-100]
% Extracted Ga [5]: 97%

CC(=O)CC(C)C [Methylisobutyl ketone]
% Extracted Fe [1]: 0%
% Extracted Al [2]: 0%
% Extracted P [3]: 0%
% Extracted Zn [4]: 0%
% Extracted Ga [5]: 25%

CCCCCCCCCCC(CC(=O)N(C)O)C(=O)N(C)O (centres unmarked) [N,N'-dimethyln-decylsuccinodihydroxamic acid]
Ga removed in additional scrubbings ([6]; 20/20 mixtures of H2SO4/H3PO4): over 13%
Ga stripping ([6]; several portions of 20% H2SO4): 76.88%
Ga Extraction ([6]; three successive 10 ml aqueous portions, near 60 °C, pH 1.0, with N-methyldecanohydroxamic acid): 86.3% and 72.79% and 51.55%

CCCCCCCCCC(=O)N(O)CCCCCC [N-hexyldecanohydroxamic acid]
% STRIPPED (Fe (III)) ([7]; strip H2SO4 1.5 g/l): > 98%
pH1/2 (minimum pH at which 50% of Fe (III) was extractible) [8]: 3.0

CCCCCCN(O)C(=O)CCCC [N-hexylpentano HA]
% STRIPPED (Fe (III)) ([7]; strip H2SO4 100 g/l): > 98%

CCCCCCCCCC(=O)N(O)C(C)C [N-isopropyldecanohydroxamic acid]
% STRIPPED (Fe (III)) ([7]; strip H2SO4 25 g/l): 98%
pH1/2 (minimum pH at which 50% of Fe (III) was extractible) [8]: 2.90

CCCCCCCCC(CCCCCC)C(=O)N(C)O (centres unmarked) [N-methyl 2-hexyldecanohydroxamic acid]
% Extraction Fe ([9]; 15 min, based on raffinate vs leachate): ~ 0%
% Extraction Fe ([9]; based on iron total concentrations in strip solution): ~ 2.1%
Ga stripped in the first contact ([10]; 2M H2SO4): practically all the Ga was stripped in the one contact
% Extraction Ga ([10]; 15 min): 10.3%

CCCCCCCCCCCCCCCCCC(=O)N(C)O [N-methyl stearohydroxamic acid]
Ga extracted ([11]; after NaOH to pH 2.24): approximately 98.6%
Ga extracted ([11]; before NaOH addition, pH fell to 0.52, 58.5 °C): about 49%
Ga in aqueous phase ([11]; first NaOH strip): 10,825 ppm
Ga in organic phase ([11]; first NaOH strip): 5112 ppm
Ga stripped ([11]; first NaOH strip): 52.9%
Ga stripped ([11]; second contact, 1.00M NaOH): 85.0%
Ga in organic phase ([11]; second strip, 1.00M NaOH): 813 ppm
Ga in aqueous phase ([11]; second strip, 1.00M NaOH, 54 min, 60.0 °C): 5090 ppm

CCCCCCCCCCc1ccc(C(=O)N(C)O)cc1 [N-methyl-p-n-decylphenylhydroxamic acid]
overall yield of Fe [12]: 4%
Fe stripping efficiency ([12]; 30% sulfuric acid): 6%
Fe extracted ([12]; aqueous solution after extraction): 81%
overall yield (recovery) of Ga from extraction, washing and stripping [13]: 37%
Ga level in combined wash solution ([13]; 2% sulfuric acid washes, 65.9 ml): 0.8 ppm
Ga stripped ([13]; 30% H2SO4, 5 minutes): 6%
Ga stripped ([13]; 30% H2SO4, 15 minutes): 24%
Ga stripped ([13]; 30% H2SO4, 30 minutes): 37%
Ga stripped ([13]; 30% H2SO4, one hour (60 minutes)): 37%
Ga extracted ([13]; 5 minutes): 87%
Ga extracted ([13]; 10 minutes): 99%
